Reference: US12473298B2, “Amide compounds, preparation method therefor, and use thereof in the medical field” (Shanghai Synergy Pharmaceutical Sciences Co., Ltd., priority 2019, dated 2025)

How the values were obtained:
[1] = test system: human diffuse large cell lymphoma B lymphocytes (Pfeiffer cell); assay: Pfeiffer cell proliferation, Calcein AM staining; assay type: cell-based; settings: read-out: Pfeiffer Proliferation IC50 Nanomoles per Liter (nM)
[2] = test system: human diffuse large B-cell lymphoma cells (Karpas 422 cell); assay: Karpas 422 cell proliferation, Calcein AM staining; assay type: cell-based; settings: KARPAS-422, read-out: Karpas422 Proliferation IC50 Nanomoles per Liter (nM)

- IC50 [1]: 7.14 nM
- IC50 [2]: 13.3 nM
SMILES: CCN(c1cc(-c2ccc(CN3CCOCC3)cc2)cc(C(=O)NCc2c(C)cc(C)[nH]c2=O)c1C)C1CCOCC1 [EPZ-6438, reference compound]
